Values from PubChem BioAssay AID652272 (Drosophila RNAi Screening Center, 2013).
The screen tested about 21,000 reagents; shown is an unselected part of those with a known target gene and a result. Over the whole deposit, 503 (2.4%) are marked active. 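Raw plate light values, not normalised; calls rest on replicate z-scores that were not deposited; hits include reporter decreases as well as increases.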 The numbers tell different reagents against one gene apart. Names joined by + are all predicted targets of the reagent. Not given: the amount of reagent, the time to read-out.

Assay: 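Genes whose knock-down decreases or increases Hedgehog reporter output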 (primary screen)
System: Drosophila clone 8 (Cl8) cells
Reagents: long dsRNA against Drosophila genes
Measured: 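Firefly light from a Hedgehog-responsive ptc promoter reporter and Renilla reference light, both read on a plate reader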
Scale: firefly Hh reporter signal: higher = more ptc reporter light; Renilla reference signal: higher = more Renilla control light
Hit rule: 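Hit when the z-score averaged over two replicates is under -2 or over +3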
Meaning of the calls: active = hit: reporter lowered or raised; inactive = not a hit

| firefly Hh reporter signal, replicate 1 | firefly Hh reporter signal, replicate 2 | firefly Hh reporter signal, replicate 3 | Renilla reference signal, replicate 1 | Renilla reference signal, replicate 2 | activity call | gene | reagent no. |
| --- | --- | --- | --- | --- | --- | --- | --- |
| 64515 | 1.25e5 | – | 1456 | 5620 | inactive | CG12679 | 1 |
| 84944 | 1.90e5 | – | 2691 | 7357 | inactive | rod (rough deal) | 1 |
| 88065 | 23069 | – | 1890 | 3173 | inactive | CG14013 | 1 |
| 1.19e5 | 1.04e5 | – | 4940 | 3830 | inactive | Nmdmc (NAD-dependent methylenetetrahydrofolate dehydrogenase) | 1 |
| 58812 | 1.08e5 | – | 1523 | 2864 | inactive | plum | 1 |
| 70988 | 3.21e5 | – | 1147 | 10982 | inactive | Loxl1 (Lysyl oxidase-like 1) | 1 |
| 59628 | 42416 | – | 2660 | 2114 | inactive | VhaSFD (Vacuolar H[+]-ATPase SFD subunit) | 1 |
| 74997 | 73594 | – | 2672 | 2788 | inactive | dock (dreadlocks) | 1 |
| 1.00e5 | 99497 | – | 2697 | 6188 | inactive | CG13202 | 1 |
| 98176 | 95488 | – | 3435 | 3320 | inactive | Meltrin | 1 |
| 59644 | 76832 | – | 1574 | 2410 | inactive | Fer2LCH (Ferritin 2 light chain homologue) | 1 |
| 80632 | 71037 | – | 1351 | 805 | inactive | Nadsyn (NAD synthetase) | 1 |
| 63061 | 1.19e5 | – | 2230 | 3353 | inactive | CG6225 | 1 |
| 1.43e5 | 1.09e5 | – | 5195 | 4759 | inactive | Snx6 (Sorting nexin 6) | 1 |
| 58987 | 4.93e5 | 1.41e5 | 2345 | 3602 | inactive | ArgRS-m (Arginyl-tRNA synthetase, mitochondrial) | 1 |
| 50186 | 93719 | – | 2284 | 3201 | inactive | CycJ (Cyclin J) | 1 |
| 70247 | 40458 | – | 1603 | 4252 | inactive | Vps20 (Vacuolar protein sorting 20) | 1 |
| 53962 | 1.95e5 | – | 10167 | 3858 | inactive | Nha2 + asRNA:CR43454 | 1 |
| 1.60e5 | 3.58e5 | – | 5725 | 13154 | inactive | CG15375 | 1 |
| 70493 | 81570 | – | 2250 | 3236 | inactive | CG6418 | 1 |
| 94714 | 50420 | – | 2188 | 4107 | inactive | CG9304 | 1 |
| 67859 | 66646 | – | 1990 | 5957 | inactive | MESK2 (Misexpression suppressor of KSR 2) | 1 |
| 41225 | 2.55e5 | – | 10641 | 5545 | inactive | Octbeta2R (Octopamine beta2 receptor) | 1 |
| 99672 | 1.19e5 | – | 3049 | 3385 | inactive | Octbeta2R (Octopamine beta2 receptor) | 2 |
| 86432 | 1.05e5 | – | 2535 | 3027 | inactive | Octbeta2R (Octopamine beta2 receptor) | 3 |
| 70231 | 69270 | – | 1734 | 1756 | inactive | Rnp4F (RNA-binding protein 4F) | 1 |
| 79109 | 47330 | – | 2198 | 4264 | inactive | CG7231 | 1 |
| 72961 | 55752 | – | 3250 | 2505 | inactive | RluA-2 (RluA pseudouridine synthase 2) | 1 |
| 79741 | 50720 | – | 3677 | 2081 | inactive | thoc6 | 1 |
| 82251 | 57363 | – | 2288 | 3858 | inactive | CG18371 | 1 |
| 68240 | 55962 | – | 2355 | 1702 | inactive | CG30389 | 1 |
| 72357 | 62080 | – | 1530 | 5761 | inactive | CG30389 | 2 |
| 1.25e5 | 59068 | – | 3344 | 4952 | inactive | CG14483 | 1 |
| 5.35e5 | 69702 | – | 26084 | 2428 | inactive | CG11889 + CG11891 | 1 |
| 4.22e5 | 78176 | – | 22858 | 2723 | inactive | CG11889 + CG11891 | 2 |
| 60416 | 31024 | – | 2968 | 1632 | inactive | nmd (no mitochondrial derivative) | 1 |
| 30804 | 77604 | 1.02e5 | 5739 | 6579 | inactive | mRpL20 (mitochondrial ribosomal protein L20) | 1 |
| 87490 | 2.97e5 | – | 3184 | 12161 | inactive | fz4 (frizzled 4) | 1 |
| 1.69e5 | 69684 | – | 4645 | 7725 | inactive | CG8360 | 1 |
| 50953 | 20484 | – | 1160 | 1389 | inactive | exp (expansion) | 1 |
| 1.05e5 | 47729 | – | 2346 | 3794 | inactive | CG10866 | 1 |
| 30209 | 1.77e5 | – | 5319 | 4154 | inactive | eIF2gamma + Su(var)3-9 | 1 |
| 1.21e5 | 84784 | – | 4664 | 3348 | inactive | eIF2gamma + Su(var)3-9 | 2 |
| 4.97e5 | 1.13e5 | – | 24403 | 3156 | inactive | CG14298 | 1 |
| 8.71e5 | 2.02e5 | – | 45984 | 13077 | inactive | dnd (dead end) | 1 |
| 1.59e5 | 63392 | – | 4059 | 6778 | inactive | drm (drumstick) | 1 |
| 4.49e5 | 92610 | – | 27795 | 3507 | inactive | Spase22-23 (Spase 22/23-subunit) | 1 |

The list goes on (10 carried over from the part before).
| firefly Hh reporter signal, replicate 1 | firefly Hh reporter signal, replicate 2 | firefly Hh reporter signal, replicate 3 | Renilla reference signal, replicate 1 | Renilla reference signal, replicate 2 | activity call | gene | reagent no. |
| --- | --- | --- | --- | --- | --- | --- | --- |
| 87490 | 2.97e5 | – | 3184 | 12161 | inactive | fz4 (frizzled 4) | 1 |
| 1.69e5 | 69684 | – | 4645 | 7725 | inactive | CG8360 | 1 |
| 50953 | 20484 | – | 1160 | 1389 | inactive | exp (expansion) | 1 |
| 1.05e5 | 47729 | – | 2346 | 3794 | inactive | CG10866 | 1 |
| 30209 | 1.77e5 | – | 5319 | 4154 | inactive | eIF2gamma + Su(var)3-9 | 1 |
| 1.21e5 | 84784 | – | 4664 | 3348 | inactive | eIF2gamma + Su(var)3-9 | 2 |
| 4.97e5 | 1.13e5 | – | 24403 | 3156 | inactive | CG14298 | 1 |
| 8.71e5 | 2.02e5 | – | 45984 | 13077 | inactive | dnd (dead end) | 1 |
| 1.59e5 | 63392 | – | 4059 | 6778 | inactive | drm (drumstick) | 1 |
| 4.49e5 | 92610 | – | 27795 | 3507 | inactive | Spase22-23 (Spase 22/23-subunit) | 1 |
| 1.90e5 | 8.45e5 | 1.16e5 | 7521 | 47091 | inactive | Hel89B (Helicase 89B) | 1 |
| 1.92e5 | – | – | 3570 | – | inactive | CG42650 | 1 |
| 78197 | 89287 | – | 2624 | 2593 | inactive | CG8326 | 1 |
| 79523 | 1.39e5 | – | 3017 | 5302 | inactive | MAPk-Ak2 (MAP kinase activated protein-kinase-2) | 1 |
| 97603 | 46576 | – | 2361 | 4100 | inactive | alpha-Catr (alpha-catenin related) | 1 |
| 89818 | 2.98e5 | – | 2867 | 12816 | inactive | CG45002 | 1 |
| 1.28e5 | 88660 | – | 5274 | 3122 | inactive | Cog1 (Component of oligomeric golgi complex 1) | 1 |
| 1.17e5 | 2.95e5 | – | 3052 | 11362 | inactive | CG15201 | 1 |
| 63852 | 59792 | – | 3002 | 2364 | inactive | Syx5 (Syntaxin 5) | 1 |
| 86560 | 1.04e5 | – | 3296 | 3188 | inactive | CG7632 | 1 |
| 74676 | 35820 | – | 1957 | 4077 | inactive | CG10431 | 1 |
| 4.12e5 | 1.61e5 | – | 20587 | 7219 | inactive | CG34011 | 1 |
| 88674 | 56918 | – | 2320 | 5335 | inactive | CG17472 | 1 |
| 56844 | 70985 | – | 1649 | 2443 | inactive | Ubc84D (Ubiquitin conjugating enzyme 84D) | 1 |
| 1.06e5 | 50460 | – | 2348 | 2444 | inactive | CG15082 | 1 |
| 73948 | 1.06e5 | – | 3219 | 3097 | inactive | Dtwd2 (DTW domain containing 2) | 1 |
| 98247 | 1.69e5 | – | 3367 | 6202 | inactive | Vsp37A (Vacuolar protein sorting 37A) | 1 |
| 59328 | 1.38e5 | – | 13036 | 3018 | inactive | Sulf1 (Sulfated) | 1 |
| 79562 | 1.07e5 | – | 1661 | 3416 | inactive | Sulf1 (Sulfated) | 2 |
| 7.02e5 | 90555 | – | 35673 | 546 | inactive | CG4553 | 1 |
| 1.23e5 | 3.41e5 | – | 5276 | 12865 | inactive | OdsH (Ods-site homeobox) | 1 |
| 78816 | 38787 | – | 6764 | 1776 | active | Rpt4 (Regulatory particle triple-A ATPase 4) | 1 |
| 1.00e5 | 73095 | – | 2521 | 1787 | active | Rcd5 (Reduction in Cnn dots 5) | 1 |
| 1.07e5 | 59528 | – | 3482 | 1856 | inactive | cad (caudal) | 1 |
| 70945 | 88234 | – | 2201 | 7813 | inactive | ouib (ouija board) | 1 |
| 85172 | 79312 | – | 2310 | 6374 | inactive | CG13562 | 1 |
